Data reported in doi:10.1101/330084.
Results are given in words; binding and its absence hold for the method and conditions named. For part of these data: In cells and extracts the contact can be indirect. Some results given as binding are weak or reduced against the parent protein; the word gives no strength.

Experiments:
[1] = target: transferrin receptor (mouse (endogenous in mouse heart)) (UniProt Q62351); experiment: co-IP
[2] = target: transferrin receptor (mouse (endogenous in mouse heart)) (UniProt Q62351); experiment: native gel or EMSA
[3] = target: transferrin receptor (mouse (endogenous in mouse heart)) (UniProt Q62351); experiment: co-IP; remark: listed apart in the source

Measured: binding

B1: mitoNEET (protein, UniProt Q91WS0 1-108)
chain: MGLSSNSAVRVEWIAAVTFAAGTAALGYLAYKKFYAKENRTKAMVNLQIQKDNPKVVHAFDMEDLGDKAVYCRCWRSKKFPFCDGAHIKHNEETGDNVGPLIIKKKET
binds: all assays above
